# Values of other authors in patent publication US5700484A, “Sustained release microparticulate caffeine formulation” (Nestec S.A., priority 1996, dated 1997).
# At least one read-out could not be matched to a standard name with certainty.
# Conditions: 350 mg caffeine oral, aqueous solution
smiles,measurement,value
"Cn1c(=O)c2c(ncn2C)n(C)c1=O [caffeine, 1,3,7-trimethyl xanthine]",time given for maximum plasma level,about 47 minutes
